The source of these data is ChEMBL document CHEMBL2216752, “Carnitine palmitoyltransferase (CPT) modulators: a medicinal chemistry perspective on 35 years of research” (J Med Chem, 2011).

A short description of experiment [1]: Inhibition of human FAO.
Experiment [2] is described as follows: Inhibition of rat FAO.

Where only a bound is given, the exact number is not on record here.

The term IC50 denotes the concentration at which inhibition is half-maximal. A low value points to greater potency. Take `CCCCc1oc2ccccc2c1C(=O)c1cc(I)c(OCCN(CC)CC)c(I)c1` [AMIODARONE]: the IC50 in experiment [1] is 28.5 µM; in experiment [2], more than 100 µM.
